Assay results published in patent EP4663659A1.
Results are given in words; binding and its absence hold for the method and conditions named. Some entries that bind do so weakly or less than the wild type.

By UniProt entry, the sequences of proteins in these tests, tags left out. Where a name states a change or a piece, a line headed by the entry shows the natural chain unless it says otherwise.
UniProt P25942: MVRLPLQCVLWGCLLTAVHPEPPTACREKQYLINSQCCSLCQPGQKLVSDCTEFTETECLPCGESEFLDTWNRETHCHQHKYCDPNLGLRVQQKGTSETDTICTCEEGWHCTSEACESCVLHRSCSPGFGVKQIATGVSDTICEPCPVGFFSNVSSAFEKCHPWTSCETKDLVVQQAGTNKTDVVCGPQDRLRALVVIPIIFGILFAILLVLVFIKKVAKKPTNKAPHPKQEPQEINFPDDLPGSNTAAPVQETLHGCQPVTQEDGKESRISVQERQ

Molecular target: CD40 (as used in epitope binning / Octet BLI) (human) (UniProt P25942)
Test: epitope binning or Octet biolayer interferometry

- binding: binds
B1: CD40 VHH of FP1 (anti-human CD40 VHH) (VHH)
VHH: EVQLVESGGGVVQPGGSLRLSCAASGFTFSSATMGWFRQAPGKGLEWVAYISSVGGGTDYADSVKGRFTISRDNAKNTLYLQMNSLRAEDTAVYYCVTMRSIRNPDFGSRGQGTLVTVSS
